Data taken from patent US4806537A (City of Hope, priority 1988, dated 1989).

System: K^+ transport
Test: K^+ transport: ^86 Rb uptake by P3 membrane fractions of whole mouse brain
Format: biochemical, Swiss mice
Details: rank among the five substances

| SMILES | K^+ Transport Rank Order |
| --- | --- |
| CCN(CC)CCCC(C)Nc1c2ccc(Cl)cc2nc2ccc(OC)cc12 (stereo not drawn) [Quinacrine, quinacrine] | 3 |
| CCN(CC)CCCC(C)Nc1ccnc2cc(Cl)ccc12 (stereo not drawn) [Chloroquine, chloroquine] | 4 |
| Nc1c2ccccc2nc2ccccc12 [9-aminoacridine] | 2 |
